Experimental data published in the supplement of paper PMC10849652.
The list shows a part of the results.

The chains behind the UniProt entries cited, without tags or fusion partners. Where a name states a change or a piece, a line headed by the entry shows the natural chain unless it says otherwise.
UniProt Q01105, whole entry, looked up: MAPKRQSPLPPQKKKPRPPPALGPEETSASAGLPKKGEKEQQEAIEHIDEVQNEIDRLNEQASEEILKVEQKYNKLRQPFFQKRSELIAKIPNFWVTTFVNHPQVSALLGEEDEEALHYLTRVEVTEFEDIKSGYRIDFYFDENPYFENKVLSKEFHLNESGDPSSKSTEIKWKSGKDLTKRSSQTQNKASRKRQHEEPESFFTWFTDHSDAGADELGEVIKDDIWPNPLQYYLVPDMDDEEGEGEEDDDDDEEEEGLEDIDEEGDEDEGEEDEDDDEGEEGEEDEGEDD
UniProt Q96ST3: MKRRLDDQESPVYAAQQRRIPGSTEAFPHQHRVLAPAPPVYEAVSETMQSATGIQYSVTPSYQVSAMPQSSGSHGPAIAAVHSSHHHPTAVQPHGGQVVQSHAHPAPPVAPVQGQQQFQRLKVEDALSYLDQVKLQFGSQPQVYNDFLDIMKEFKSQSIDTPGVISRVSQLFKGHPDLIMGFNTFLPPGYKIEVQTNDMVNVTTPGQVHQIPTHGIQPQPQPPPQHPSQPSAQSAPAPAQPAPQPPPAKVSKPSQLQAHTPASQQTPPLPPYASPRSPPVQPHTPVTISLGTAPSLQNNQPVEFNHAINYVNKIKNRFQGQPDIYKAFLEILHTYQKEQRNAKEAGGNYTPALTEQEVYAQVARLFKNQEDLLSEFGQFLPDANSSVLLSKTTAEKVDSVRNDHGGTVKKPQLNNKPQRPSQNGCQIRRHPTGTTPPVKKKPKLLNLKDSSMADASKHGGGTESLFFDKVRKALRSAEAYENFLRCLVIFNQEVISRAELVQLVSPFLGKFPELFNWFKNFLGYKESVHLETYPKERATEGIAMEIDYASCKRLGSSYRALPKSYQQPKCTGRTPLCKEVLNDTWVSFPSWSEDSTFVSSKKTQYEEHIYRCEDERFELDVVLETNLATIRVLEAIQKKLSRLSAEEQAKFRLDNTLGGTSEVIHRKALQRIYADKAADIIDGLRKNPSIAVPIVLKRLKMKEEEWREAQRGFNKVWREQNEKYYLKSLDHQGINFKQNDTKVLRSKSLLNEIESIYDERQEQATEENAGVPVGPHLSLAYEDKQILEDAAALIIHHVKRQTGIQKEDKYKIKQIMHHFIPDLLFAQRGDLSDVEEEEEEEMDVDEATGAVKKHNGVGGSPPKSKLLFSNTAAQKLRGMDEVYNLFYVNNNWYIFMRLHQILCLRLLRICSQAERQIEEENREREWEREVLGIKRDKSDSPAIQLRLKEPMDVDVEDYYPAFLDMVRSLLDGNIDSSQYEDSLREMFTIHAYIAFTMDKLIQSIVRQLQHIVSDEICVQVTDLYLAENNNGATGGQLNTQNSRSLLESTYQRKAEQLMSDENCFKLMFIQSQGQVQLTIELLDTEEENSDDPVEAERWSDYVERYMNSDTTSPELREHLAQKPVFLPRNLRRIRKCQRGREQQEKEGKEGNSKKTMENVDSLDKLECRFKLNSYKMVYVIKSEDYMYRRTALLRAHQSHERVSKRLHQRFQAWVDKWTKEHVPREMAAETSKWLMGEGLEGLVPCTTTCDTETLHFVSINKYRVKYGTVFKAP
UniProt O75368: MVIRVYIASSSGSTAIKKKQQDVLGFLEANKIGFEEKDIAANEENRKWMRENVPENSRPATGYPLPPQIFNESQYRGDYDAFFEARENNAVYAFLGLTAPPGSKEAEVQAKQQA
UniProt Q9NR46: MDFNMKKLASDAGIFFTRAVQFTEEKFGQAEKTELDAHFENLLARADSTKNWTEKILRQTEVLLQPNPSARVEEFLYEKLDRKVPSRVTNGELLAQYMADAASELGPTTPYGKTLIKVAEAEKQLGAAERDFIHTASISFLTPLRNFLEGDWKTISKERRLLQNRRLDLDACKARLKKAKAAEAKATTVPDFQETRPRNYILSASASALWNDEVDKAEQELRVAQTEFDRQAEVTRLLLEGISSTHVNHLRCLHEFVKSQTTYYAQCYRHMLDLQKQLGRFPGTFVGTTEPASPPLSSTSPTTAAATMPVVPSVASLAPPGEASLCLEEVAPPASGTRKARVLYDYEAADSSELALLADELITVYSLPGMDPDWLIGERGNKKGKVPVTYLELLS
UniProt Q53H47: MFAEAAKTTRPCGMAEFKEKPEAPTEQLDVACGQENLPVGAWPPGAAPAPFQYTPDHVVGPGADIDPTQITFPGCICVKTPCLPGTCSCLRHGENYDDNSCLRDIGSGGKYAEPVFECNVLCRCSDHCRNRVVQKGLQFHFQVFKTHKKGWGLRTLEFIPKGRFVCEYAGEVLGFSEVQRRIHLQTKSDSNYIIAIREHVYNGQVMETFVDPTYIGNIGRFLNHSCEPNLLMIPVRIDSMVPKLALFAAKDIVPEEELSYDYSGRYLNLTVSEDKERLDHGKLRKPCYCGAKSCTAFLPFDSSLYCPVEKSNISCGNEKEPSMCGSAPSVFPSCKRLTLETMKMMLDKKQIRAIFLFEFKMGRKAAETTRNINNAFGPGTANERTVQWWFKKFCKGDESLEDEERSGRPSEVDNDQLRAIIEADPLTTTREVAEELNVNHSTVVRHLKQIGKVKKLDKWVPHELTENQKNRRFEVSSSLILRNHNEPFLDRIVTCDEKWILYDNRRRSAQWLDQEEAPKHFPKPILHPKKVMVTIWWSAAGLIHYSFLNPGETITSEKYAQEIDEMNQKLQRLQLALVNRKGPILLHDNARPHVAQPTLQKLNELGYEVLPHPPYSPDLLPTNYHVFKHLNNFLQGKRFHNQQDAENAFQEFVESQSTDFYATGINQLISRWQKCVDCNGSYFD
UniProt P50452: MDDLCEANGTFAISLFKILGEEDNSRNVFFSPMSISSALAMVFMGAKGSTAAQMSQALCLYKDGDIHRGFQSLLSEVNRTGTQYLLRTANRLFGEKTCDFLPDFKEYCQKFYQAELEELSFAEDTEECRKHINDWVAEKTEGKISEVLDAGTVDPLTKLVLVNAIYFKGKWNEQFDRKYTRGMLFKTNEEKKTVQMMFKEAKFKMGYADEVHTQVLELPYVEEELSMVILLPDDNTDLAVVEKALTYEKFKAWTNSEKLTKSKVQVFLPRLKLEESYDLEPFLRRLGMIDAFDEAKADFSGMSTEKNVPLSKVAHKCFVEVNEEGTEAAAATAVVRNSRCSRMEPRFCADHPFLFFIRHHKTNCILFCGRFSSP
UniProt P58004: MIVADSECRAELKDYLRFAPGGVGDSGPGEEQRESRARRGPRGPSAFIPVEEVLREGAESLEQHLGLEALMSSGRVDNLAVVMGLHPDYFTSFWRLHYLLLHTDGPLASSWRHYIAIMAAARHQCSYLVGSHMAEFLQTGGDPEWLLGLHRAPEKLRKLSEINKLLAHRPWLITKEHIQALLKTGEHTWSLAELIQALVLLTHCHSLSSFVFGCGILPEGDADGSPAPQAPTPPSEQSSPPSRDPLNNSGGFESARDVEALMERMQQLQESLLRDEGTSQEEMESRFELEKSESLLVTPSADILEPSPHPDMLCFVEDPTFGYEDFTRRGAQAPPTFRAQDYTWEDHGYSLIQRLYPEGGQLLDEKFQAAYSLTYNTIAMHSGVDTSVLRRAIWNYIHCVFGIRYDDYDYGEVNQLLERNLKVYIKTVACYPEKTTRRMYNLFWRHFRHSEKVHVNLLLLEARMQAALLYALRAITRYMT
UniProt P50453: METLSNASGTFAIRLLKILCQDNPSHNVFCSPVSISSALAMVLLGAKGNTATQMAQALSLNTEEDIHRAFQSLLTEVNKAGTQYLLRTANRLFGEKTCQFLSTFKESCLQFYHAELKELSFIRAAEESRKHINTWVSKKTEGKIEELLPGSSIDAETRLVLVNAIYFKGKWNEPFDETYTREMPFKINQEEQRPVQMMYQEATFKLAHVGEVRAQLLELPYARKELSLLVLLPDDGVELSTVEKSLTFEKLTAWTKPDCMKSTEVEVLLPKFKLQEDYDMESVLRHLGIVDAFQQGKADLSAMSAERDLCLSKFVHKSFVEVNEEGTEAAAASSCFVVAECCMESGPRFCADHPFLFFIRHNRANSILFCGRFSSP
UniProt Q9UQ13: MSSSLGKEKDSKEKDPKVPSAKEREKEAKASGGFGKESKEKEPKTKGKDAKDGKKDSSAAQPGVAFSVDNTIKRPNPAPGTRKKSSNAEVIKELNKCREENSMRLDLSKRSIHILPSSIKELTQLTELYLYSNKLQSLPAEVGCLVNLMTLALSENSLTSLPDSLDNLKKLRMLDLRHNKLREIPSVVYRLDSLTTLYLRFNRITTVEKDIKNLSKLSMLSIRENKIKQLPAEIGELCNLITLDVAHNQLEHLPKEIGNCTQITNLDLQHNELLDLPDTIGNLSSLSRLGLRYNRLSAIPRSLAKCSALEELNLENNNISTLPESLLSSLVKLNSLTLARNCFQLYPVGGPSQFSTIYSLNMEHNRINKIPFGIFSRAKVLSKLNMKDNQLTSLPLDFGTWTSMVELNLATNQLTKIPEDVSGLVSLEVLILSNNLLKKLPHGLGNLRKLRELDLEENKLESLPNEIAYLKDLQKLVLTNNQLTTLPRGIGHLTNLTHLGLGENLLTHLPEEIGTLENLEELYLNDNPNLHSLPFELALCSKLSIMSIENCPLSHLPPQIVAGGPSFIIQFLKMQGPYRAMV
UniProt P23246: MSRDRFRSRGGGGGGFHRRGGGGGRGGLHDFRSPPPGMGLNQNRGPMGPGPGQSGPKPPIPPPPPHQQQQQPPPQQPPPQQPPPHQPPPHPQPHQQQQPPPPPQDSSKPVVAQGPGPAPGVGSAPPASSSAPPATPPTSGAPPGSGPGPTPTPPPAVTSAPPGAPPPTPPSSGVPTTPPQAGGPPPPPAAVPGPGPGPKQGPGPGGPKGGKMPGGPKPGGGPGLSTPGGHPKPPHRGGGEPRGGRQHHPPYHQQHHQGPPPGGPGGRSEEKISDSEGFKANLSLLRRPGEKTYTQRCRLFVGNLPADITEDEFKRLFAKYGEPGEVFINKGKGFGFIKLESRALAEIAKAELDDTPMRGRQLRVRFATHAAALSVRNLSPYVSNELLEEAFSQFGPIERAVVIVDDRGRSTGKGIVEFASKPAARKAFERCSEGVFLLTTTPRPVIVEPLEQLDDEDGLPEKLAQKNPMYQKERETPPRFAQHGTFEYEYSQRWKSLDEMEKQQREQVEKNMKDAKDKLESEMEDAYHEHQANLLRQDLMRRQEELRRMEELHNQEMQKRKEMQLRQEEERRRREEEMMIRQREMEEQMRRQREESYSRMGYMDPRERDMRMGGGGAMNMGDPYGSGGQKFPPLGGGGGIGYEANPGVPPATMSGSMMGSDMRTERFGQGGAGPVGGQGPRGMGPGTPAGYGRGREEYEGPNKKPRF
UniProt Q9BWJ5: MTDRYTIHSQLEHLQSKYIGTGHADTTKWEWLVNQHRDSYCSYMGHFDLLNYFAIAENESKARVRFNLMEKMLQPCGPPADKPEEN
UniProt Q15393: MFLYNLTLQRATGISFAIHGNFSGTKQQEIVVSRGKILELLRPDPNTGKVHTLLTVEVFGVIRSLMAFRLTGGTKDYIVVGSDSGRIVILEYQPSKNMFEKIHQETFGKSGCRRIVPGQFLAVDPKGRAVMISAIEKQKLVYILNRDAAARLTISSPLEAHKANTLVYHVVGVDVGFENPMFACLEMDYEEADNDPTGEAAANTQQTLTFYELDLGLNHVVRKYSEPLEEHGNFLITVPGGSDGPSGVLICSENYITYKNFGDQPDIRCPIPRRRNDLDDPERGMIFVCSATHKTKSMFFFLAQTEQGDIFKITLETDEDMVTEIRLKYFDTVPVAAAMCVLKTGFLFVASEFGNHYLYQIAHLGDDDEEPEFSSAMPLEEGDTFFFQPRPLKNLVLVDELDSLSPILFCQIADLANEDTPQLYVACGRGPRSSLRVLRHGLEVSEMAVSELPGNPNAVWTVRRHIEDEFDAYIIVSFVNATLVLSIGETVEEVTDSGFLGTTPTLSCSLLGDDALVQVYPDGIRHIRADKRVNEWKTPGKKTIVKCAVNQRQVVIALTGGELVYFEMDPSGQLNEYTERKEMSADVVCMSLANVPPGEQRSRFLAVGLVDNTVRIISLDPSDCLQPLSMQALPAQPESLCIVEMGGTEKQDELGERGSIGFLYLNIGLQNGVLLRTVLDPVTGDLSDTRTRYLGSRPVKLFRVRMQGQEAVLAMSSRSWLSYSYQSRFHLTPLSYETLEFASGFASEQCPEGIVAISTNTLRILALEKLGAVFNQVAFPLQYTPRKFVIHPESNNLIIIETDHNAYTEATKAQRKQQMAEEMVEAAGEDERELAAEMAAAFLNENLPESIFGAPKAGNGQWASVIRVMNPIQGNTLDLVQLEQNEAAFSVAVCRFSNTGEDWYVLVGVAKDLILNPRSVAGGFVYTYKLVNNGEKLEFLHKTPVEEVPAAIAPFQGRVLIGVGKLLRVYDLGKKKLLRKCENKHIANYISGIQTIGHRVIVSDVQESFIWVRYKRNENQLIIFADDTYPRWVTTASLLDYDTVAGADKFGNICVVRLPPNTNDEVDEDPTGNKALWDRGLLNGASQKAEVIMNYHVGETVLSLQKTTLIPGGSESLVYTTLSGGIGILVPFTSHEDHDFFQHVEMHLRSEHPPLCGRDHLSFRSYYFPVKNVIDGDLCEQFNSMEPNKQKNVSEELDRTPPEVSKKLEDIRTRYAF

Columns and labels:
Experiment in all cases: log2 fold change, soluble protein after heating vs DMSO (PISA); higher = thermal stabilisation; K562 cells, 10 uM, 30 min; active = over 0.2 and 3.5 SD of the protein, either way, in both replicates (recomputed)
[1] = compound: COC1=CC=C(C=C1)CN2C=CC3=C2C=C(C=C3)C(=O)NO
Method in brief: (§1)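 Thermal stability values are relative to control samples and come from duplicates. They are expressed as log2 fold changes. For measurement, K562 cells (2×10^6 cells/mL) received 10 μM compound for 30 min, and aliquots were heated for 3 min over 48°C-58°C, pooled, and extracted at 4°C in PBS with 0.5% NP-40. Soluble protein, the supernatant after 21,000xg for 90 min, was quantified by TMTpro 16plex LC-MS/MS with equalised channel sums.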

filanesib = compound: CON(C)C(=O)N1N=C(c2cc(F)ccc2F)S[C@@]1(CCCN)c1ccccc1 [filanesib]
Method in brief: as §1

zotarolimus = compound: CO[C@H]1C[C@@H]2CC[C@@H](C)[C@@](O)(O2)C(=O)C(=O)N2CCCC[C@H]2C(=O)O[C@H]([C@H](C)C[C@@H]2CC[C@H](n3cnnn3)[C@H](OC)C2)CC(=O)[C@H](C)/C=C(\C)[C@@H](O)[C@@H](OC)C(=O)[C@H](C)C[C@H](C)/C=C/C=C/C=C/1C [zotarolimus]
Method in brief: as §1

idasanutlin = compound: COc1cc(C(=O)O)ccc1NC(=O)[C@@H]1N[C@@H](CC(C)(C)C)[C@](C#N)(c2ccc(Cl)cc2F)[C@H]1c1cccc(Cl)c1F [idasanutlin]
Method in brief: as §1

alisertib = compound: COc1cc(Nc2ncc3c(n2)-c2ccc(Cl)cc2C(c2c(F)cccc2OC)=NC3)ccc1C(=O)O [alisertib]
Method in brief: as §1

[2] = compound: COc1cc2nc(-c3cc(F)ccc3O)nc(N[C@@H]3CNC[C@H]3C(C)(C)O)c2cc1OC
Method in brief: as §1

gefitinib = compound: COc1cc2ncnc(Nc3ccc(F)c(Cl)c3)c2cc1OCCCN1CCOCC1 [gefitinib]
Method in brief: as §1

[3] = compound: COc1cccc2cc(-c3nc([C@H]4CC[C@H](C(=O)O)CC4)n4ncnc(N)c34)[nH]c12
Method in brief: as §1

lapatinib = compound: CS(=O)(=O)CCNCc1ccc(-c2ccc3ncnc(Nc4ccc(OCc5cccc(F)c5)c(Cl)c4)c3c2)o1 [lapatinib]
Method in brief: as §1

pictilisib = compound: CS(=O)(=O)N1CCN(Cc2cc3nc(-c4cccc5[nH]ncc45)nc(N4CCOCC4)c3s2)CC1 [pictilisib]
Method in brief: as §1

Target | log2 fold change [1] | log2 fold change (filanesib) | log2 fold change (zotarolimus) | log2 fold change (idasanutlin) | log2 fold change (alisertib) | log2 fold change [2] | log2 fold change (gefitinib) | log2 fold change [3] | log2 fold change (lapatinib) | log2 fold change (pictilisib)
SF1 isoform 6 (UniProt Q15637) | inactive: 0.04 | inactive: 0.074 | inactive: 0.107 | inactive: -0.08 | inactive: 0.098 | inactive: 0.054 | inactive: -0.081 | inactive: 0.091 | inactive: -0.036 | inactive: 0.054
SET isoform 2 (UniProt Q01105) | inactive: 0.037 | inactive: -0.078 | inactive: 0.013 | inactive: 0.009 | inactive: -0.021 | inactive: -0.031 | inactive: 0.012 | inactive: 0.068 | inactive: 0.008 | inactive: 0.012
SIN3A (UniProt Q96ST3) | inactive: -0.012 | inactive: 0.122 | inactive: 0 | inactive: 0.068 | inactive: -0.125 | inactive: -0.043 | inactive: -0.014 | inactive: -0.103 | inactive: 0.036 | inactive: 0.076
SF3A2 (UniProt Q15428) | inactive: -0.028 | inactive: 0.162 | inactive: 0.006 | inactive: 0.017 | inactive: -0.085 | inactive: 0.038 | inactive: -0.01 | inactive: -0.09 | inactive: 0.01 | inactive: 0.078
SEMA4B (UniProt Q9NPR2) | inactive: -0.096 | inactive: 0.02 | inactive: -0.214 | inactive: 0.063 | inactive: -0.09 | inactive: 0.073 | inactive: 0.185 | inactive: 0.054 | inactive: -0.027 | inactive: 0.162
SHROOM2 (UniProt Q13796) | inactive: 0.417 | inactive: 0.066 | inactive: 0.02 | inactive: -0.045 | inactive: -0.027 | inactive: 0.237 | inactive: 0.056 | inactive: 0.009 | inactive: -0.188 | inactive: 0.226
SIL1 (UniProt Q9H173) | inactive: -0.092 | inactive: 0.071 | inactive: -0.01 | inactive: 0.013 | inactive: -0.066 | inactive: -0.051 | inactive: 0.005 | inactive: -0.034 | inactive: 0.075 | inactive: -0.001
SH3BGRL (UniProt O75368) | inactive: 0.018 | inactive: -0.101 | inactive: -0.005 | inactive: -0.052 | inactive: -0.028 | inactive: -0.047 | inactive: -0.009 | inactive: 0 | inactive: -0.012 | inactive: 0.157
SGTB (UniProt Q96EQ0) | inactive: -0.061 | inactive: 0.011 | inactive: 0.003 | inactive: -0.019 | inactive: -0.023 | inactive: 0 | inactive: -0.014 | inactive: 0.005 | inactive: 0.012 | inactive: -0.095
SH3GLB2 (UniProt Q9NR46) | inactive: 0.016 | inactive: 0.085 | inactive: 0.052 | inactive: 0.061 | inactive: -0.011 | inactive: -0.034 | inactive: -0.004 | inactive: -0.018 | inactive: -0.04 | inactive: 0.025
SETMAR (UniProt Q53H47) | inactive: -0.135 | inactive: -0.065 | inactive: 0.048 | inactive: -0.037 | inactive: 0.014 | inactive: -0.002 | inactive: -0.044 | inactive: 0.004 | inactive: 0.018 | inactive: -0.009
SERPINB8 (UniProt P50452) | inactive: 0.04 | inactive: -0.002 | inactive: -0.071 | inactive: -0.026 | inactive: -0.255 | inactive: 0.013 | inactive: 0.049 | inactive: 0.07 | inactive: -0.001 | inactive: -0.079
SELENOH (UniProt Q8IZQ5) | inactive: 0.204 | inactive: -0.077 | inactive: 0.035 | inactive: 0.02 | inactive: -0.27 | inactive: -0.114 | inactive: -0.028 | inactive: -0.038 | inactive: 0.08 | inactive: -0.074
SEPTIN7 (UniProt Q16181) | inactive: 0.033 | inactive: -0.026 | inactive: 0.065 | inactive: -0.043 | inactive: -0.023 | inactive: -0.099 | inactive: 0.022 | inactive: 0.012 | inactive: 0.034 | inactive: -0.054
SH2D1B (UniProt O14796) | inactive: 0.129 | inactive: 0.086 | inactive: -0.037 | inactive: 0.117 | inactive: -0.075 | inactive: 0.072 | inactive: -0.078 | inactive: 0.236 | inactive: 0.053 | inactive: -0.004
SESN2 (UniProt P58004) | inactive: 0.013 | inactive: -0.174 | inactive: 0.099 | inactive: -0.107 | inactive: -0.005 | inactive: -0.112 | inactive: 0.08 | inactive: -0.085 | inactive: 0.25 | inactive: 0.167
SFXN5 (UniProt Q8TD22) | inactive: -0.104 | inactive: -0.007 | inactive: 0.025 | inactive: -0.172 | inactive: 0.027 | inactive: -0.019 | inactive: -0.013 | inactive: 0.035 | inactive: 0.017 | inactive: 0.061
SEC63 (UniProt Q9UGP8) | inactive: 0.003 | inactive: -0.015 | inactive: 0.013 | inactive: -0.097 | inactive: -0.038 | inactive: 0.093 | inactive: 0.02 | inactive: -0.008 | inactive: -0.011 | inactive: -0.008
SERPINF2 (UniProt P08697) | inactive: -0.068 | inactive: 0.083 | inactive: -0.147 | inactive: 0.1 | inactive: 0.045 | inactive: -0.167 | inactive: -0.419 | inactive: 0.227 | inactive: -0.041 | inactive: 0.041
SERPINB9 (UniProt P50453) | inactive: 0.028 | inactive: -0.079 | inactive: 0.009 | inactive: -0.022 | inactive: -0.076 | inactive: -0.024 | inactive: -0.017 | inactive: 0.037 | inactive: 0.007 | inactive: 0
SHOC2 (UniProt Q9UQ13) | inactive: 0.025 | inactive: -0.168 | inactive: 0.03 | inactive: -0.092 | inactive: -0.021 | inactive: 0.028 | inactive: 0.032 | inactive: 0.062 | inactive: 0.018 | inactive: 0.086
SFPQ (UniProt P23246) | inactive: -0.044 | inactive: 0.246 | inactive: -0.004 | inactive: 0.141 | inactive: -0.048 | inactive: -0.05 | inactive: 0.007 | inactive: -0.078 | inactive: 0.029 | inactive: -0.052
SF3B5 (UniProt Q9BWJ5) | inactive: 0.19 | inactive: 0.2 |  | inactive: 0.085 | inactive: -0.122 | inactive: -0.026 | inactive: 0.027 | inactive: 0.044 | inactive: -0.051 | inactive: -0.069
SF3B3 (UniProt Q15393) | inactive: -0.016 | inactive: 0.021 | inactive: 0.056 | inactive: -0.041 | inactive: -0.059 | inactive: 0.029 | inactive: -0.028 | inactive: 0.014 | inactive: 0.006 | inactive: 0.046
SH3GL1 (UniProt Q99961) | inactive: 0.046 | inactive: -0.047 | inactive: 0.062 | inactive: 0 | inactive: 0.012 | inactive: 0 | inactive: -0.029 | inactive: -0.048 | inactive: -0.008 | inactive: -0.005
SH2D2A isoform 2 (UniProt Q9NP31) | inactive: -0.253 |  | inactive: 0.195 | inactive: 0.167 | inactive: -0.025 | inactive: -0.02 | inactive: 0.02 | inactive: 0.075 | inactive: -0.281 | inactive: 0.277
SETD3 (UniProt Q86TU7) | active: -0.254 | inactive: -0.132 | inactive: 0.009 | inactive: -0.086 | inactive: -0.022 | inactive: 0.052 | inactive: 0.017 | inactive: 0.048 | inactive: -0.013 | inactive: 0.03

Two successive entries already listed, for reference:
Target | log2 fold change [1] | log2 fold change (filanesib) | log2 fold change (zotarolimus) | log2 fold change (idasanutlin) | log2 fold change (alisertib) | log2 fold change [2] | log2 fold change (gefitinib) | log2 fold change [3] | log2 fold change (lapatinib) | log2 fold change (pictilisib)
SEPTIN7 (UniProt Q16181) | inactive: 0.033 | inactive: -0.026 | inactive: 0.065 | inactive: -0.043 | inactive: -0.023 | inactive: -0.099 | inactive: 0.022 | inactive: 0.012 | inactive: 0.034 | inactive: -0.054
SH2D1B (UniProt O14796) | inactive: 0.129 | inactive: 0.086 | inactive: -0.037 | inactive: 0.117 | inactive: -0.075 | inactive: 0.072 | inactive: -0.078 | inactive: 0.236 | inactive: 0.053 | inactive: -0.004
